# Data published in paper PMC12148940.
# Protein sequences, listed by entry. Tags and fused reporters are not part of them.
# UniProt Q13148: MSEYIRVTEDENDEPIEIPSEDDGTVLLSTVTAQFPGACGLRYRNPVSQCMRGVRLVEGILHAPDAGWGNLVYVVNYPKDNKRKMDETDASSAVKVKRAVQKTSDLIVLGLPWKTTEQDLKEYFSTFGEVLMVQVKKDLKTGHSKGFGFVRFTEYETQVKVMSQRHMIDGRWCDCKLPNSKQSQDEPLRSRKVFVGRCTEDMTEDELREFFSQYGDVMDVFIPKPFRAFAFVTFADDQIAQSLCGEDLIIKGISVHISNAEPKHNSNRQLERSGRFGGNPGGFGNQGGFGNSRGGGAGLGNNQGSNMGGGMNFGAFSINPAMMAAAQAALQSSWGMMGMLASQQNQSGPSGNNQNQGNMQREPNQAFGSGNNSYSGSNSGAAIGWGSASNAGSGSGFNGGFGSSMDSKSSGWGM
# No constants are given. Whether binding was seen depends on the method and setting. Binding seen in cells or lysates may run through a third protein. A yes stands for co-enrichment or nearness to the bait. Other partners may have been found. For some of these results: A no says only that the protein was not detected with the bait.
# Tests used:
# [1] = molecular target: G3BP1 (human (endogenous in neurons made from human fibroblasts or iPSCs)) (UniProt Q13283); test: affinity purification with mass spectrometry; G3BP1 antibody on anti-rabbit IgG Dynabeads, ~3 mg lysate protein, 16 h at 4 °C; IP lysis buffer 50 mM Tris-HCl pH 7.4, 150 mM NaCl, 1 mM EDTA, 0.5% IGEPAL-CA630; lysates of iPSC-derived neurons (unstressed or 1 h sodium arsenite) and transdifferentiated neurons compared, n = 2
# [2] = molecular target: G3BP1 (human (endogenous in neurons made from human fibroblasts or iPSCs)) (UniProt Q13283); test: condition: only in transdifferentiated (aged) neurons; affinity purification with mass spectrometry; G3BP1 antibody on Dynabeads, same buffers; lysate of transdifferentiated (aged) neurons only
# [3] = molecular target: TDP-43 (human (endogenous in neurons made from human fibroblasts or iPSCs)) (UniProt Q13148); test: affinity purification with mass spectrometry; TDP-43 antibody on anti-rabbit IgG Dynabeads, ~3 mg lysate protein, 16 h at 4 °C; IP lysis buffer 50 mM Tris-HCl pH 7.4, 150 mM NaCl, 1 mM EDTA, 0.5% IGEPAL-CA630; lysates of iPSC-derived neurons (unstressed or 1 h sodium arsenite) and transdifferentiated neurons compared, n = 2
binding [1],binding [2],binding [3],Binder
binds,,,"staufen-2 (protein, UniProt Q9NUL3 1-570) MANPKEKTAMCLVNELARFNRVQPQYKLLNERGPAHSKMFSVQLSLGEQTWESEGSSIKKAQQAVANKALTESTLPKPVQKPPKSNVNNNPGSITPTVELNGLAMKRGEPAIYRPLDPKPFPNYRANYNFRGMYNQRYHCPVPKIFYVQLTVGNNEFFGEGKTRQAARHNAAMKALQALQNEPIPERSPQNGESGKDVDDDKDANKSEISLVFEIALKRNMPVSFEVIKESGPPHMKSFVTRVSVGEFSAEGEGNSKKLSKKRAATTVLQELKKLPPLPVVEKPKLFFKKRPKTIVKAGPEYGQGMNPISRLAQIQQAKKEKEPDYVLLSERGMPRRREFVMQVKVGNEVATGTGPNKKIAKKNAAEAMLLQLGYKASTNLQDQLEKTGENKGWSGPKPGFPEPTNNTPKGILHLSPDVYQEMEASRHKVISGTTLGYLSPKDMNQPSSSFFSISPTSNSSATIARELLMNGTSSTAEAIGLKGSSPTPPCSPVQPSKQLEYLARIQGFQAALSALKQFSEQGLDPIDGAMNIEKGSLEKQAKHLREKADNNQAPPGSIAQDCKKSNSAV"
binds,no binding,,"FAF2 (protein, UniProt Q96CS3 1-445) MAAPEERDLTQEQTEKLLQFQDLTGIESMDQCRHTLEQHNWNIEAAVQDRLNEQEGVPSVFNPPPSRPLQVNTADHRIYSYVVSRPQPRGLLGWGYYLIMLPFRFTYYTILDIFRFALRFIRPDPRSRVTDPVGDIVSFMHSFEEKYGRAHPVFYQGTYSQALNDAKRELRFLLVYLHGDDHQDSDEFCRNTLCAPEVISLINTRMLFWACSTNKPEGYRVSQALRENTYPFLAMIMLKDRRMTVVGRLEGLIQPDDLINQLTFIMDANQTYLVSERLEREERNQTQVLRQQQDEAYLASLRADQEKERKKREERERKRRKEEEVQQQKLAEERRRQNLQEEKERKLECLPPEPSPDDPESVKIIFKLPNDSRVERRFHFSQSLTVIHDFLFSLKESPEKFQIEANFPRRVLPCIPSEEWPNPPTLQEAGLSHTEVLFVQDLTDE"
,,binds,"G3BP2 (protein, UniProt Q9UN86 1-482) MVMEKPSPLLVGREFVRQYYTLLNKAPEYLHRFYGRNSSYVHGGVDASGKPQEAVYGQNDIHHKVLSLNFSECHTKIRHVDAHATLSDGVVVQVMGLLSNSGQPERKFMQTFVLAPEGSVPNKFYVHNDMFRYEDEVFGDSEPELDEESEDEVEEEQEERQPSPEPVQENANSGYYEAHPVTNGIEEPLEESSHEPEPEPESETKTEELKPQVEEKNLEELEEKSTTPPPAEPVSLPQEPPKAFSWASVTSKNLPPSGTVSSSGIPPHVKAPVSQPRVEAKPEVQSQPPRVREQRPRERPGFPPRGPRPGRGDMEQNDSDNRRIIRYPDSHQLFVGNLPHDIDENELKEFFMSFGNVVELRINTKGVGGKLPNFGFVVFDDSEPVQRILIAKPIMFRGEVRLNVEEKKTRAARERETRGGGDDRRDIRRNDRGPGGPRGIVGGGMMRDRDGRGPPPRGGMAQKLGSGRGTGQMEGRFTGQRR"
